In paper doi:10.1101/2020.04.06.027847:
Results are given in words; binding and its absence hold for the method and conditions named. Some binding calls cover weakened binding; strength is not graded here. Each block holds one binder with its values, some of them ahead of it.

Target: T1, Scs3 (S. cerevisiae) (UniProt P53012)
T1 sequence: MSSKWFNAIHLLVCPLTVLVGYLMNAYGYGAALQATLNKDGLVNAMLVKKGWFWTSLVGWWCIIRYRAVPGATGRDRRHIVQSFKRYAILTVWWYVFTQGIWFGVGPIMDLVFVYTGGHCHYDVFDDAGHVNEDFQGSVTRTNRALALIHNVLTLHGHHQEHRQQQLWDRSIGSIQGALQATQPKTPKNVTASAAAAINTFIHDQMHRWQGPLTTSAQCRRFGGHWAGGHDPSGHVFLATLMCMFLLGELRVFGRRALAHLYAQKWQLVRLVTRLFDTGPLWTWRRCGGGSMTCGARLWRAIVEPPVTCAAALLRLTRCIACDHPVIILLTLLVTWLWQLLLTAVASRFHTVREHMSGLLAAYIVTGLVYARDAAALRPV
Test: two-hybrid

binding: binds
B1: Doa10 (protein, UniProt P40318 1-1319)
chain: MDVDSDVNVSRLRDELHKVANEETDTATFNDDAPSGATCRICRGEATEDNPLFHPCKCRGSIKYMHESCLLEWVASKNIDISKPGADVKCDICHYPIQFKTIYAENMPEKIPFSLLLSKSILTFFEKARLALTIGLAAVLYIIGVPLVWNMFGKLYTMMLDGSSPYPGDFLKSLIYGYDQSATPELTTRAIFYQLLQNHSFTSLQFIMIVILHIALYFQYDMIVREDVFSKMVFHKIGPRLSPKDLKSRLKERFPMMDDRMVEYLAREMRAHDENRQEQGHDRLNMPAAAADNNNNVINPRNDNVPPQDPNDHRNFENLRHVDELDHDEATEEHENNDSDNSLPSGDDSSRILPGSSSDNEEDEEAEGQQQQQQPEEEADYRDHIEPNPIDMWANRRAQNEFDDLIAAQQNAINRPNAPVFIPPPAQNRAGNVDQDEQDFGAAVGVPPAQANPDDQGQGPLVINLKLKLLNVIAYFIIAVVFTAIYLAISYLFPTFIGFGLLKIYFGIFKVILRGLCHLYYLSGAHIAYNGLTKLVPKVDVAMSWISDHLIHDIIYLYNGYTENTMKHSIFIRALPALTTYLTSVSIVCASSNLVSRGYGRENGMSNPTRRLIFQILFALKCTFKVFTLFFIELAGFPILAGVMLDFSLFCPILASNSRMLWVPSICAIWPPFSLFVYWTIGTLYMYWFAKYIGMIRKNIIRPGVLFFIRSPEDPNIKILHDSLIHPMSIQLSRLCLSMFIYAIFIVLGFGFHTRIFFPFMLKSNLLSVPEAYKPTSIISWKFNTILLTLYFTKRILESSSYVKPLLERYWKTIFKLCSRKLRLSSFILGKDTPTERGHIVYRNLFYKYIAAKNAEWSNQELFTKPKTLEQAEELFGQVRDVHAYFVPDGVLMRVPSSDIVSRNYVQTMFVPVTKDDKLLKPLDLERIKERNKRAAGEFGYLDEQNTEYDQYYIVYVPPDFRLRYMTLLGLVWLFASILMLGVTFISQALINFVCSFGFLPVVKLLLGERNKVYVAWKELSDISYSYLNIYYVCVGSVCLSKIAKDILHFTEGQNTLDEHAVDENEVEEVEHDIPERDINNAPVNNINNVEEGQGIFMAIFNSIFDSMLVKYNLMVFIAIMIAVIRTMVSWVVLTDGILACYNYLTIRVFGNSSYTIGNSKWFKYDESLLFVVWIISSMVNFGTGYKSLKLFFRNRNTSKLNFLKTMALELFKQGFLHMVIYVLPIIILSLVFLRDVSTKQIIDISHGSRSFTLSLNESFPTWTRMQDIYFGLLIALESFTFFFQATVLFIQWFKSTVQNVKDEVYTKGRALENLPDES

binding: binds
B2: Zuo1 (protein, UniProt P32527 1-433)
chain: MFSLPTLTSDITVEVNSSATKTPFVRRPVEPVGKFFLQHAQRTLRNHTWSEFERIEAEKNVKTVDESNVDPDELLFDTELADEDLLTHDARDWKTADLYAAMGLSKLRFRATESQIIKAHRKQVVKYHPDKQSAAGGSLDQDGFFKIIQKAFETLTDSNKRAQYDSCDFVADVPPPKKGTDYDFYEAWGPVFEAEARFSKKTPIPSLGNKDSSKKEVEQFYAFWHRFDSWRTFEFLDEDVPDDSSNRDHKRYIERKNKAARDKKKTADNARLVKLVERAVSEDPRIKMFKEEEKKEKERRKWEREAGARAEAEAKAKAEAEAKAKAESEAKANASAKADKKKAKEAAKAAKKKNKRAIRNSAKEADYFGDADKATTIDEQVGLIVDSLNDEELVSTADKIKANAAGAKEVLKESAKTIVDSGKLPSSLLSYFV
